Results taken from the supplement of paper PMC10849652.
This is one part of the list.

Amino acid sequences for entries named in this document (tags omitted). A change or cut given only in a name is not applied to a line headed by its entry.
UniProt Q9HCJ0: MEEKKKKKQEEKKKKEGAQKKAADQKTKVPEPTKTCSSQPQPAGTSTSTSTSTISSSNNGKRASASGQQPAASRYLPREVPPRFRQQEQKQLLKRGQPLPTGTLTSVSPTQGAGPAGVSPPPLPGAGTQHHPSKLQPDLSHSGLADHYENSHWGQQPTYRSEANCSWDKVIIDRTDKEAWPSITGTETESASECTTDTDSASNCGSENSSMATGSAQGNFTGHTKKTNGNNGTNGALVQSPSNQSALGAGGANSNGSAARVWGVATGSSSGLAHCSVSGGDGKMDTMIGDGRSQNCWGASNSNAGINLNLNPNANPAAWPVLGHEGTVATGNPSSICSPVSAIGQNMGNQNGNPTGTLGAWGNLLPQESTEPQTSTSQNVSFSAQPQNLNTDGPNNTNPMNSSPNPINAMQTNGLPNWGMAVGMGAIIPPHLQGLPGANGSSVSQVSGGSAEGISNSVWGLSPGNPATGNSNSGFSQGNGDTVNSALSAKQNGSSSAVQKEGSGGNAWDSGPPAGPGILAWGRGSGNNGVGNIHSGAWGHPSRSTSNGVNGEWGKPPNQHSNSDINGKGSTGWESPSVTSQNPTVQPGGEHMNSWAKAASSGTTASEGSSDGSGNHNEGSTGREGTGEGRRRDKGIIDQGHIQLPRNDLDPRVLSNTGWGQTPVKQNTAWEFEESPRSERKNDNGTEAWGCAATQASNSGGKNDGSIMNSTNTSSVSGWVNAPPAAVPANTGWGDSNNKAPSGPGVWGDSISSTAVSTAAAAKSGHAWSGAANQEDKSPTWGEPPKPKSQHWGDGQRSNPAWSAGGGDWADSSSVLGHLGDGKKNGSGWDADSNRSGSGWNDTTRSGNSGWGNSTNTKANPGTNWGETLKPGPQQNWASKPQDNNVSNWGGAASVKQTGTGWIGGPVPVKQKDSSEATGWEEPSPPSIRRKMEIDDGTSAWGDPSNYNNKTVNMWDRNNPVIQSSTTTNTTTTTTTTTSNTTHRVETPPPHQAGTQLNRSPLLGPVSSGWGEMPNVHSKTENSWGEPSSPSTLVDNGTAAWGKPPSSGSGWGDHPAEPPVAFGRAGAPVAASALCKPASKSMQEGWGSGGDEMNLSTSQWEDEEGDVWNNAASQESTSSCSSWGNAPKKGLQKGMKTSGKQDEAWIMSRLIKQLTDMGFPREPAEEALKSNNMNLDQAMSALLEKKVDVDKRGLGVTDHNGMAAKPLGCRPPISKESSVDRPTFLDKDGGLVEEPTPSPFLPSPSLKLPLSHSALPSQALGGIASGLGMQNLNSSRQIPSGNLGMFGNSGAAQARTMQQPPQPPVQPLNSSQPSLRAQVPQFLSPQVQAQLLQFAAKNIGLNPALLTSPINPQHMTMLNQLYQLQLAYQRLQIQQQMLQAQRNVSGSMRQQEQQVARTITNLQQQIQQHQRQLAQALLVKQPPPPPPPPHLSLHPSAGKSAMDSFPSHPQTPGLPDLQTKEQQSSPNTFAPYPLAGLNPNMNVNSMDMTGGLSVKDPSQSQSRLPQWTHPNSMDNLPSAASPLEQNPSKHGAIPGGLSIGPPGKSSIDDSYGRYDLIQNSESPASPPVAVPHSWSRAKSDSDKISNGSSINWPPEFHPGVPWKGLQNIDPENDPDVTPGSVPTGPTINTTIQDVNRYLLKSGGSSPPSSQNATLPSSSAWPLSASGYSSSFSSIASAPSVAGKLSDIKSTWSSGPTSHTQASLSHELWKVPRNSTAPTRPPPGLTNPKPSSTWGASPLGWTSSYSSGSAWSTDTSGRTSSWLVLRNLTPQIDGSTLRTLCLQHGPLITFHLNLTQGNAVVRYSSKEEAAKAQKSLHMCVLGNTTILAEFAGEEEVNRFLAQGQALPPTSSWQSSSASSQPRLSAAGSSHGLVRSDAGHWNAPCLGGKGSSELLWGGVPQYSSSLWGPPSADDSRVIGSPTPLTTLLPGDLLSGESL
UniProt P55327: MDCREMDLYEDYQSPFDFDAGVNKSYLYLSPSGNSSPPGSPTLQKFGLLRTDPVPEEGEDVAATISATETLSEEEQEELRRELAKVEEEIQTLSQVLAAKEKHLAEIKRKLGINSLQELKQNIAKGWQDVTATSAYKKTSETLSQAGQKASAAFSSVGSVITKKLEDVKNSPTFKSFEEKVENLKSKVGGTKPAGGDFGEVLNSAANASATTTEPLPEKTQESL
UniProt P28908: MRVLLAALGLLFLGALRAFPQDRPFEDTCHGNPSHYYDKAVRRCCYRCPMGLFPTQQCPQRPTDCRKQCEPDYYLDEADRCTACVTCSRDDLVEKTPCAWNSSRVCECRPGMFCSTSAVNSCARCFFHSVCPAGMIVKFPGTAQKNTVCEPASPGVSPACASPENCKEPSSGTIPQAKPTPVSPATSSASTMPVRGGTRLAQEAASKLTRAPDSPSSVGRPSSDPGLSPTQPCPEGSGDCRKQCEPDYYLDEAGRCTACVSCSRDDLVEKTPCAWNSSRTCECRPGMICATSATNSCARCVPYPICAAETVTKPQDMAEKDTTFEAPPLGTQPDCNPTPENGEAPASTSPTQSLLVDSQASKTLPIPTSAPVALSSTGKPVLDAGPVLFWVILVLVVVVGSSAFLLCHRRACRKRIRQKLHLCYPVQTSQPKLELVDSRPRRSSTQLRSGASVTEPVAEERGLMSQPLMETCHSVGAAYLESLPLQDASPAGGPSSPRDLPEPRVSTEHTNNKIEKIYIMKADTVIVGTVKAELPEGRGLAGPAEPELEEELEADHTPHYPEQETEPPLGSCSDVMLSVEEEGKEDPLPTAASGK
UniProt Q9HBL0: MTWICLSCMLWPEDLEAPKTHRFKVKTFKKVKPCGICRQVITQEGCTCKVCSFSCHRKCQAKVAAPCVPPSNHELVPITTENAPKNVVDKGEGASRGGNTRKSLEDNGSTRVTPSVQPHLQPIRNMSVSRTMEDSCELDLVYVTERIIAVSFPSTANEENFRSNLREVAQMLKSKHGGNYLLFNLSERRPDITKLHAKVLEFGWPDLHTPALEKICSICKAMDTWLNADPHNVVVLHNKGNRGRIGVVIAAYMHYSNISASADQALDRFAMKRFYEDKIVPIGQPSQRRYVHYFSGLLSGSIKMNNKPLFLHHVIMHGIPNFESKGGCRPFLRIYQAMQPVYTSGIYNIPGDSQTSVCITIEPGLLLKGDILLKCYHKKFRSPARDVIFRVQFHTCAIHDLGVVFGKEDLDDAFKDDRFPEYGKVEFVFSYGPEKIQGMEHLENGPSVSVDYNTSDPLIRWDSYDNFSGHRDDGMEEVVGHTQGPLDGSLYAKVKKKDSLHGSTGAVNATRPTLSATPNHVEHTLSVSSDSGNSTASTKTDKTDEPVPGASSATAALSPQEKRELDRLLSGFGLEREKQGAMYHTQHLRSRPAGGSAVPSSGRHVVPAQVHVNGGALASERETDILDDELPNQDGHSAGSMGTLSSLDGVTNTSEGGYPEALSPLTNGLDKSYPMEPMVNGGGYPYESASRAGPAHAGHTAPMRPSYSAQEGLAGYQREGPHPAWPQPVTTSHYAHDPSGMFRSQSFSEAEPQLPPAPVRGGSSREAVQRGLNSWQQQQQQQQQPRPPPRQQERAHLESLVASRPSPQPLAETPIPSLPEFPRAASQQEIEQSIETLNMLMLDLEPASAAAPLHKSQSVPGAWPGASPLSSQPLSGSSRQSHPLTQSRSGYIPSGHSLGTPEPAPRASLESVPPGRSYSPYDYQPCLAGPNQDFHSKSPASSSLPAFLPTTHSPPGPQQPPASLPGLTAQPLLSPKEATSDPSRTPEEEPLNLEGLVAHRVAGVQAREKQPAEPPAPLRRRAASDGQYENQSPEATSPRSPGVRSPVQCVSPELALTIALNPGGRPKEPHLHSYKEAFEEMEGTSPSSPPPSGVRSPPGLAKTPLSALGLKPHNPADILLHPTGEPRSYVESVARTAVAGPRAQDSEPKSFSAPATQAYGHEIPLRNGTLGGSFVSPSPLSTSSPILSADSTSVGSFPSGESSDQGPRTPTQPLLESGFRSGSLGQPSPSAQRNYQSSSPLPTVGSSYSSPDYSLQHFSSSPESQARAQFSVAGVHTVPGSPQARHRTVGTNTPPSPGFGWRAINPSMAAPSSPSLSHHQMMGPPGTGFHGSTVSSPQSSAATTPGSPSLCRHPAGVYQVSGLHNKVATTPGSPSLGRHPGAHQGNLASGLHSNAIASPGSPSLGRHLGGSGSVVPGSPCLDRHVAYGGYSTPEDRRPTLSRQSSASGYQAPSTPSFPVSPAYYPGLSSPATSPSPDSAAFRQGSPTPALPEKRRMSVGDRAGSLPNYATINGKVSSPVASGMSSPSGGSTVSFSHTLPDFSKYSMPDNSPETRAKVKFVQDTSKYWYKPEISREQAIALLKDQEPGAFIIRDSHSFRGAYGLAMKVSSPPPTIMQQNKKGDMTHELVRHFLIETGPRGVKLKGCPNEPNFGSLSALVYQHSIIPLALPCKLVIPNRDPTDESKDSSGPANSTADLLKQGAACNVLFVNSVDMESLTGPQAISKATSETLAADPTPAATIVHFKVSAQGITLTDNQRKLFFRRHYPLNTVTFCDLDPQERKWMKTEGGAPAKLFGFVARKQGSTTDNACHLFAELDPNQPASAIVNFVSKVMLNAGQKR
UniProt Q9NVH6: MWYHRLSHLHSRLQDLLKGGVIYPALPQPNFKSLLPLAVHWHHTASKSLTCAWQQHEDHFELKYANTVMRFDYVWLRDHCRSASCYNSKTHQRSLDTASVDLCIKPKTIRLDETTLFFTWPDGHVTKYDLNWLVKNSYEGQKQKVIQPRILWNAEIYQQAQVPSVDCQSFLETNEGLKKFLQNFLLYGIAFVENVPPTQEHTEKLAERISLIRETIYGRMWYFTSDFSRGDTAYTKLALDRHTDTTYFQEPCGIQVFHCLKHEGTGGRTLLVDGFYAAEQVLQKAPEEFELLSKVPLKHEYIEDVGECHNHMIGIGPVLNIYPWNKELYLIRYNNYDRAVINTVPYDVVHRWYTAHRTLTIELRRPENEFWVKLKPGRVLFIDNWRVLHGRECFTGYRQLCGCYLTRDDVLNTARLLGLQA
UniProt O95807: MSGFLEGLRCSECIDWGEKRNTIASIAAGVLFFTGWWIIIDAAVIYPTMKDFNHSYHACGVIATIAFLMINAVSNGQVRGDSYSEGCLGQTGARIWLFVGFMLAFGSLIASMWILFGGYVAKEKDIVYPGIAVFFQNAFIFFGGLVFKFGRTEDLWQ
UniProt P42167: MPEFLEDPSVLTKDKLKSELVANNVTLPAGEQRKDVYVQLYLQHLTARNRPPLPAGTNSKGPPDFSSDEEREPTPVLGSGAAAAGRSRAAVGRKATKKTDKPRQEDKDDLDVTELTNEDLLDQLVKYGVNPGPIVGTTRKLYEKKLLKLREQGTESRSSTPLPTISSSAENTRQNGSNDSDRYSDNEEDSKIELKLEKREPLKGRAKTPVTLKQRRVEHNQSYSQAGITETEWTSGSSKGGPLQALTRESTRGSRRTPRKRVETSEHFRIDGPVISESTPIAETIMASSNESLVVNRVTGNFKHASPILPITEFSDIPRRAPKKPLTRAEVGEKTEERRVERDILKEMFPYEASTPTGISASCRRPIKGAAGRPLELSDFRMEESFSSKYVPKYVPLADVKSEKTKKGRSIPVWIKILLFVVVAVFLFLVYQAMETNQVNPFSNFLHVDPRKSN
UniProt Q5T4D3: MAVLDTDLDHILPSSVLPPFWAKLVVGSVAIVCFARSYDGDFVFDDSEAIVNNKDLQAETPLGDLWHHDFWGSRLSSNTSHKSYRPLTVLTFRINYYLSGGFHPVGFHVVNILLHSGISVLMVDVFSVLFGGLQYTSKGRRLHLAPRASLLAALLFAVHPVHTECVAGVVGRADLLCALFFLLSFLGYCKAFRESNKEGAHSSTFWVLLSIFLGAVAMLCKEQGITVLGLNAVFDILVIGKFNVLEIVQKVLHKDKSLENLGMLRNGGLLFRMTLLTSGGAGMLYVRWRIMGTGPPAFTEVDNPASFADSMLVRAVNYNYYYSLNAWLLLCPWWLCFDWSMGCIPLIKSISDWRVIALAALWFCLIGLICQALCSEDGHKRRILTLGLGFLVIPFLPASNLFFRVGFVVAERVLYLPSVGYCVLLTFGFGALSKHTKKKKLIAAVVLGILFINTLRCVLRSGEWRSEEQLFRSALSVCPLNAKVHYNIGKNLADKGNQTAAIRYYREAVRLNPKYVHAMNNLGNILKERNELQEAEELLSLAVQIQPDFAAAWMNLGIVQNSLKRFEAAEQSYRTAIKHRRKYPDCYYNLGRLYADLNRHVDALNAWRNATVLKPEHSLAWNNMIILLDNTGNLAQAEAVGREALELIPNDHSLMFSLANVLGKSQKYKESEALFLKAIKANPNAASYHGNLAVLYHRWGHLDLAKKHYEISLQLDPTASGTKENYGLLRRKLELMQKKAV
UniProt Q96B49: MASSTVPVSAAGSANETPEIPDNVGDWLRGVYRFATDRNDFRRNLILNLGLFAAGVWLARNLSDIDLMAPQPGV
UniProt Q9NWH2: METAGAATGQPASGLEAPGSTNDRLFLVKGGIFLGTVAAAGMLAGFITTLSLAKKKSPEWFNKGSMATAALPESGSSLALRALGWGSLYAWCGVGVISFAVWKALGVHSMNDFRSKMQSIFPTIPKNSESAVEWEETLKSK

Compound: c1cn2cc(-c3ccc4cn[nH]c4c3)nc(Nc3ccc(N4CCOCC4)cc3)c2n1 [entospletinib]
Assay: log2 fold change, soluble protein after heating vs DMSO (PISA); higher = thermal stabilisation; K562 lysate, 10 uM; active = over 0.2 and 3.5 SD of the protein, either way, in both replicates (recomputed)
How it was run: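 Quantification was by TMTpro 16plex LC-MS/MS with equalised channel sums, applied to the supernatant after 21,000xg for 90 min. Samples were crude K562 extract at 1 mg/mL protein in PBS pH 7.4 with 1 mM MgCl2, treated with 10 μM compound for 30 min, heated for 3 min across 48°C-58°C, pooled and brought to 0.5% NP-40 at 4°C. Values are log-two fold changes in thermal stability relative to solvent controls, from duplicates.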

log2 fold change, inactive:
TNRC6C isoform 2 (UniProt Q9HCJ0) 0.145
TNFAIP3 (UniProt P21580) 0.044
TOM1 (UniProt O60784) 0
TMEM30A (UniProt Q9NV96) -0.029
TMSB4X (UniProt P62328) -0.158
TPD52 isoform 3 (UniProt P55327) -0.082
TNFRSF8 (UniProt P28908) -0.012
TMEM208 (UniProt Q9BTX3) 0.018
TNS1 (UniProt Q9HBL0) 0.09
TMLHE isoform 8 (UniProt Q9NVH6) -0.048
TMEM50A (UniProt O95807) -0.352
TMEM256 (UniProt Q8N2U0) 0.054
TMPO isoform 2 (UniProt P42167) 0.032
TMEM219 (UniProt Q86XT9) 0.069
TPK1 (UniProt Q9H3S4) -0.05
TMEM41B (UniProt Q5BJD5) 0.018
TMEM87A (UniProt Q8NBN3) 0.029
TOPAZ1 (UniProt Q8N9V7) -0.035
TMTC4 isoform 3 (UniProt Q5T4D3) -0.054
TOMM6 (UniProt Q96B49) 0.004
TMEM8A (UniProt Q9HCN3) -0.004
TMEM242 (UniProt Q9NWH2) 0.002
TMEM189 (UniProt A5PLL7) -0.054
TMEM268 isoform 3 (UniProt Q5VZI3) -0.072
TMEM44 (UniProt Q2T9K0) -0.084
TMEM205 (UniProt Q6UW68) 0.003
TMEM222 (UniProt Q9H0R3) 0.008
TOM1 isoform 2 (UniProt O60784) -0.061

Quoted at random: 2 records from the list
log2 fold change, inactive:
TMEM219 (UniProt Q86XT9) 0.069
TNFRSF8 (UniProt P28908) -0.012
